Measurements: PubChem BioAssay AID330 (DTP/NCI, 2004)
The list shows only some results of the screen, not a fair sample: it gathers tests that were run many times, whatever their T/C, doses with no T/C, and many T/C values between a quarter and a half above the control. Further doses and runs are listed elsewhere. T/C: endpoint of the treated group in % of that of the vehicle group. Some doses have a count of surviving animals in place of a T/C: the source files T/C as zero there, which appears to mark a toxic dose or a test without result, not a measured value. Some doses without a T/C left all or most animals alive at the check, yet need not have been tolerated: survival well below the control is almost never listed, so the zero probably covers shortened survival too. Counts of survivors are from the toxicity check (mostly the fifth day) where no day follows; animals may have died later. Schedule codes are those of the source, taken here to give the interval after Q, in days (D) or hours (H), and the number of doses after X. Where survival is the endpoint, the PubChem record calls one and a half times the control and up active, and a quarter to a half above the control has no call in these data; cut-offs in other NCI protocols can differ. Some doses were run more than once; the results are listed from low to high. Some T/C values are followed by the survivors on the day toxicity was checked, most often the fifth; without a count, all were alive then.

Test system: P388 leukemia ip, CD2F1 mice, survival T/C
Assay: NCI In Vivo Anticancer Drug Screen. Data for tumor model P388 Leukemia (intraperitoneal) in CD2F1 (CDF1) mice
Details: T/C endpoint: median survival time, higher T/C = longer survival
[1] = dose: 100.0 mg/kg/injection, schedule: Q01DX009 (ip), vehicle: saline
[2] = dose: 200.0 mg/kg/injection, schedule: Q01DX009 (ip), vehicle: saline
[3] = dose: 50.0 mg/kg/injection, schedule: Q01DX009 (ip), vehicle: saline with Tween-80
[4] = dose: 200.0 mg/kg/injection, schedule: Q01DX009 (ip), vehicle: saline with Tween-80

**Q.** For CCCC[N+]1(CC)CCCCC1, which survivor count (dose: 50.0 mg/kg/injection, schedule: Q01DX009 (ip), vehicle: saline) is on record?
**A.** 0 of 6

**Q.** And the survivor count [1]?
**A.** 0 of 6

**Q.** And the survivor count [2]?
**A.** 0 of 6

**Q.** O=C1C(=C(O)c2ccccc2)C(=O)c2ccccc21 was tested. Which survivor count (dose: 240.0 mg/kg/injection, schedule: Q01DX005 (ip), vehicle: saline with Tween-80) did it give?
**A.** 0 of 6

**Q.** Which survivor count (dose: 200.0 mg/kg/injection, schedule: Q01DX005 (ip), vehicle: distilled water + Tween-80) does the source give for CC(C)Cc1ncc(CC(C)C)n(O)c1=O here?
**A.** 0 of 6

**Q.** Which results are given for CC(=O)Nc1ccc(S(=O)(=O)Nc2cnccn2)cc1?
**A.** survivor count (dose: 200.0 mg/kg/injection, schedule: Q01DX001 (ip), vehicle: saline with Tween-80): 3 of 6; survivor count (dose: 400.0 mg/kg/injection, schedule: Q01DX001 (ip), vehicle: saline with Tween-80): 0 of 6

**Q.** Which survivor count [3] does the source give for O=[N+]([O-])c1ccc(/C=[N+](\[O-])CCO)cc1 here?
**A.** 6 of 6

**Q.** How did the T/C (dose: 50.0 mg/kg/injection, schedule: Q01DX005 (ip), vehicle: Klucel (hydroxypropylcellulose) (HPC)) turn out when CN(C)c1ccc2c(SCC(=O)OCC(=O)C3(O)CCC4C5CCC6=CC(=O)C=CC6(C)C5C(O)CC43C)c3ccc(N(C)C)cc3nc2c1 (stereo not drawn) was run?
**A.** 125 % of control [5 of 6 alive]

**Q.** What about the survivor count (dose: 100.0 mg/kg/injection, schedule: Q01DX005 (ip), vehicle: Klucel (hydroxypropylcellulose) (HPC)) of the same compound?
**A.** 1 of 5

**Q.** And the survivor count (dose: 200.0 mg/kg/injection, schedule: Q01DX005 (ip), vehicle: Klucel (hydroxypropylcellulose) (HPC))?
**A.** 1 of 6

**Q.** Which survivor count [3] does the source give for CSC(=S)NN=C1CCCC1 here?
**A.** 3 of 6

**Q.** For NC(C(=O)O)C(N)C(=O)O (stereo not drawn), which survivor count [4] is on record?
**A.** 6 of 6

**Q.** Which results are given for CNc1c([N+](=O)[O-])cc2[nH]cnc2c1[N+](=O)[O-]?
**A.** survivor count (dose: 100.0 mg/kg/injection, schedule: Q04DX003 (ip), vehicle: saline with Tween-80): 0 of 6; survivor count (dose: 200.0 mg/kg/injection, schedule: Q04DX003 (ip), vehicle: saline with Tween-80): 0 of 6; survivor count (dose: 400.0 mg/kg/injection, schedule: Q04DX003 (ip), vehicle: saline with Tween-80): 0 of 6

**Q.** Which results are given for O=CC(NC(=O)CCCc1ccc(N(CCCl)CCCl)cc1)C(O)C(O)C(O)CO (stereo not drawn)?
**A.** survivor count (dose: 100.0 mg/kg/injection, schedule: Q01DX009 (ip), vehicle: Klucel (hydroxypropylcellulose) (HPC)): 6 of 6; survivor count (dose: 200.0 mg/kg/injection, schedule: Q01DX009 (ip), vehicle: Klucel (hydroxypropylcellulose) (HPC)): 0 of 6

**Q.** C#CCC(N)C(=O)O (stereo not drawn) was tested. Which survivor count (dose: 200.0 mg/kg/injection, schedule: Q01DX005 (ip), vehicle: saline) did it give?
**A.** 3 of 5

**Q.** O=C1c2ccccc2C(=O)N1C[P+](c1ccccc1)(c1ccccc1)c1ccccc1 was tested. Which T/C (dose: 6.25 mg/kg/injection, schedule: Q01DX009 (ip), vehicle: water) did it give?
**A.** 129 % of control

**Q.** And the T/C (dose: 8.33 mg/kg/injection, schedule: Q01DX009 (ip), vehicle: water)?
**A.** 129 % of control

**Q.** What about the T/C (dose: 12.5 mg/kg/injection, schedule: Q01DX009 (ip), vehicle: water) of the same compound?
**A.** 129 and 134 % of control

**Q.** And the T/C (dose: 18.8 mg/kg/injection, schedule: Q01DX009 (ip), vehicle: water)?
**A.** 136 % of control

**Q.** Which results are given for COC1CCC(NS(=O)(=O)c2ccc(N)cc2)[N-]N1.[Ag+] (stereo not drawn)?
**A.** survivor count [1]: 0 of 6; survivor count [2]: 0 of 6

**Q.** What does the source list for CNc1nc2c(N)ncnc2n1C1OC(CO)C(O)C1O (stereo not drawn)?
**A.** T/C (dose: 25.0 mg/kg/injection, schedule: Q01DX009 (ip), vehicle: suspension in saline): 128 % of control; T/C (dose: 50.0 mg/kg/injection, schedule: Q01DX009 (ip), vehicle: suspension in saline): 149 % of control; survivor count (dose: 100.0 mg/kg/injection, schedule: Q01DX009 (ip), vehicle: saline with Tween-80): 1 of 3; survivor count [4]: 0 of 3; survivor count (dose: 400.0 mg/kg/injection, schedule: Q01DX009 (ip), vehicle: saline with Tween-80): 0 of 3

**Q.** With CN(C)c1ccc(-c2cccc[n+]2C)cc1 as the compound, how does the survivor count (dose: 12.0 mg/kg/injection, schedule: Q01DX009 (ip), vehicle: saline) read?
**A.** 3 of 6

**Q.** How did the survivor count (dose: 200.0 mg/kg/injection, schedule: Q01DX009 (ip), vehicle: water) turn out when COc1ccc(-c2nc(C)cc3cc(OC)c(OC)cc23)cc1OC was run?
**A.** 1 of 6

**Q.** CN1CCN(CC(O)COc2c3ccccc3nc3ccccc23)CC1 (stereo not drawn) was tested. Which survivor count (dose: 200.0 mg/kg/injection, schedule: Q01DX005 (ip), vehicle: saline with Tween-80) did it give?
**A.** 2 of 6
